Results on 19 molecules are retold here after patent publication US20250295799A1, “ANTIBODY-DRUG CONJUGATES TARGETING GLYPICAN-3 AND METHODS OF USE” (Zymeworks BC Inc., priority 2022, published 2025).

By UniProt entry, the sequences of proteins in these tests, tags left out. Where a name states a change or a piece, a line headed by the entry shows the natural chain unless it says otherwise.
UniProt P51654: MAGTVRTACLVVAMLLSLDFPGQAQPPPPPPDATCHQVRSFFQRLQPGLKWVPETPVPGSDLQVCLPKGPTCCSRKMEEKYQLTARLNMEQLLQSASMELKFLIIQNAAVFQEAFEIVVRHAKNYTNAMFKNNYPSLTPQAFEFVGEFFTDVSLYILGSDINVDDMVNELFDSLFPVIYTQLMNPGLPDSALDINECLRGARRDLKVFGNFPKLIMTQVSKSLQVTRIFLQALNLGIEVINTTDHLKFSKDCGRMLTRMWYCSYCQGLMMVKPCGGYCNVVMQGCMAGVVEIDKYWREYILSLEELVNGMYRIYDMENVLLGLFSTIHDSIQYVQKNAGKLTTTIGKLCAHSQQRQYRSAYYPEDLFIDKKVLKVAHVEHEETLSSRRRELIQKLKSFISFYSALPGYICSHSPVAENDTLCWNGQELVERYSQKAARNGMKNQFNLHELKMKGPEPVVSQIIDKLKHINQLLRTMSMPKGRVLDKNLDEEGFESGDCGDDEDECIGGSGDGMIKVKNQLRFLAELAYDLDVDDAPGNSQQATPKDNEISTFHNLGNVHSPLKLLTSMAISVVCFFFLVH

Assay [1] concerns the target recombinant human GPC3 (ACROBiosystems) (human) (UniProt P51654). Briefly: SPR.
In assay [2] the target is recombinant cynomolgus GPC3 (ACROBiosystems) (cynomolgus monkey). Kind of assay: SPR. In general terms: Surface plasmon resonance follows binding to a sensor surface in real time, without labels.

No constants are given. Whether binding was seen depends on the method and setting. Some results given as binding are weak or reduced against the parent protein; the word gives no strength.

B1: v36180 (M3-H1L1) (antibody, human IgG1, kappa, V domains shown)
VH: EVQLVQSGAEVKKPGSSVKVSCKASGYTFTDYEMHWVRQAPGQGLEWIGAIDPETGDTAYNQKFKGRATLTADKSTSTAYMELSSLRSEDTAVYYCTRYFSFAYWGQGTLVTVSS
VL: DVQMTQSPSSVSASVGDRVTITCRSSQSLRHSNGNTYLQWYQQKPGKAPKLLIYKVSNRFSGVPSRFSGSGSGTDFTLTISSLQPEDFATYFCYQSKHVPYTFGQGTKVEIKR
For the molecule B1, the binding result in assay [1] and in assay [2] was “binds” in each case.

B2: v40214 (H18L6_LC_N33T mAb) (antibody, human IgG1, kappa, V domains shown)
VH: QVQLVQSGAEVKKPGSSVKVSCKASGYTFTDYEMHWVKQAPGHGLEWIGAIDPETGDTAYNQKFKGKATLTADTSTSTAYMELSSLRSEDTAVYYCTRYFSFAYWGQGTLVTVSS
VL: EIVLTQSPATLSLSPGERATISCRSSQSLRHSTGNTYLQWYQQKPGQAPRLLIYKVSNRFSGVPARFSGSGSGTDFTLTISSLEPEDFAVYFCYQSKHVPYTFGGGTKVEIKR
For the molecule B2, the binding result in assay [1] and in assay [2] was “binds” in each case.

B3: v40218 (H18L6_LC_N33H mAb) (antibody, human IgG1, kappa, V domains shown)
VH: QVQLVQSGAEVKKPGSSVKVSCKASGYTFTDYEMHWVKQAPGHGLEWIGAIDPETGDTAYNQKFKGKATLTADTSTSTAYMELSSLRSEDTAVYYCTRYFSFAYWGQGTLVTVSS
VL: EIVLTQSPATLSLSPGERATISCRSSQSLRHSHGNTYLQWYQQKPGQAPRLLIYKVSNRFSGVPARFSGSGSGTDFTLTISSLEPEDFAVYFCYQSKHVPYTFGGGTKVEIKR
B3: the binding entry in assay [1] and in assay [2] was “binds” each time.

B4: v40215 (H18L6_LC_N33V mAb) (antibody, human IgG1, kappa, V domains shown)
VH: QVQLVQSGAEVKKPGSSVKVSCKASGYTFTDYEMHWVKQAPGHGLEWIGAIDPETGDTAYNQKFKGKATLTADTSTSTAYMELSSLRSEDTAVYYCTRYFSFAYWGQGTLVTVSS
VL: EIVLTQSPATLSLSPGERATISCRSSQSLRHSVGNTYLQWYQQKPGQAPRLLIYKVSNRFSGVPARFSGSGSGTDFTLTISSLEPEDFAVYFCYQSKHVPYTFGGGTKVEIKR
For the molecule B4, the binding entry in assay [1] and in assay [2] was “binds” each time.

B5: v40216 (H18L6_LC_N33R mAb) (antibody, human IgG1, kappa, V domains shown)
VH: QVQLVQSGAEVKKPGSSVKVSCKASGYTFTDYEMHWVKQAPGHGLEWIGAIDPETGDTAYNQKFKGKATLTADTSTSTAYMELSSLRSEDTAVYYCTRYFSFAYWGQGTLVTVSS
VL: EIVLTQSPATLSLSPGERATISCRSSQSLRHSRGNTYLQWYQQKPGQAPRLLIYKVSNRFSGVPARFSGSGSGTDFTLTISSLEPEDFAVYFCYQSKHVPYTFGGGTKVEIKR
On to B5, for which the binding result in assay [1] and in assay [2] was “binds” each time.

B6: v40206 (H18L6_LC_G34R mAb) (antibody, human IgG1, kappa, V domains shown)
VH: QVQLVQSGAEVKKPGSSVKVSCKASGYTFTDYEMHWVKQAPGHGLEWIGAIDPETGDTAYNQKFKGKATLTADTSTSTAYMELSSLRSEDTAVYYCTRYFSFAYWGQGTLVTVSS
VL: EIVLTQSPATLSLSPGERATISCRSSQSLRHSNRNTYLQWYQQKPGQAPRLLIYKVSNRFSGVPARFSGSGSGTDFTLTISSLEPEDFAVYFCYQSKHVPYTFGGGTKVEIKR
For B6, the binding result in assay [1] and in assay [2] was “binds” throughout.

B7: v40212 (H18L6_LC_G34A mAb) (antibody, human IgG1, kappa, V domains shown)
VH: QVQLVQSGAEVKKPGSSVKVSCKASGYTFTDYEMHWVKQAPGHGLEWIGAIDPETGDTAYNQKFKGKATLTADTSTSTAYMELSSLRSEDTAVYYCTRYFSFAYWGQGTLVTVSS
VL: EIVLTQSPATLSLSPGERATISCRSSQSLRHSNANTYLQWYQQKPGQAPRLLIYKVSNRFSGVPARFSGSGSGTDFTLTISSLEPEDFAVYFCYQSKHVPYTFGGGTKVEIKR
Turning to B7, the binding result in assay [1] and in assay [2] was “binds” throughout.

B8: v40211 (H18L6_LC_G34V mAb) (antibody, human IgG1, kappa, V domains shown)
VH: QVQLVQSGAEVKKPGSSVKVSCKASGYTFTDYEMHWVKQAPGHGLEWIGAIDPETGDTAYNQKFKGKATLTADTSTSTAYMELSSLRSEDTAVYYCTRYFSFAYWGQGTLVTVSS
VL: EIVLTQSPATLSLSPGERATISCRSSQSLRHSNVNTYLQWYQQKPGQAPRLLIYKVSNRFSGVPARFSGSGSGTDFTLTISSLEPEDFAVYFCYQSKHVPYTFGGGTKVEIKR
For the molecule B8, the binding entry in assay [1] and in assay [2] was “binds” in each case.

B9: v40221 (H18L6_LC_N33S mAb) (antibody, human IgG1, kappa, V domains shown)
VH: QVQLVQSGAEVKKPGSSVKVSCKASGYTFTDYEMHWVKQAPGHGLEWIGAIDPETGDTAYNQKFKGKATLTADTSTSTAYMELSSLRSEDTAVYYCTRYFSFAYWGQGTLVTVSS
VL: EIVLTQSPATLSLSPGERATISCRSSQSLRHSSGNTYLQWYQQKPGQAPRLLIYKVSNRFSGVPARFSGSGSGTDFTLTISSLEPEDFAVYFCYQSKHVPYTFGGGTKVEIKR
In the case of B9, the binding result in assay [1] and in assay [2] was “binds” throughout.

B10: v40203 (H18L6_LC_G34D mAb) (antibody, human IgG1, kappa, V domains shown)
VH: QVQLVQSGAEVKKPGSSVKVSCKASGYTFTDYEMHWVKQAPGHGLEWIGAIDPETGDTAYNQKFKGKATLTADTSTSTAYMELSSLRSEDTAVYYCTRYFSFAYWGQGTLVTVSS
VL: EIVLTQSPATLSLSPGERATISCRSSQSLRHSNDNTYLQWYQQKPGQAPRLLIYKVSNRFSGVPARFSGSGSGTDFTLTISSLEPEDFAVYFCYQSKHVPYTFGGGTKVEIKR
For the molecule B10, the binding entry in assay [1] and in assay [2] was “binds” each time.

B11: v40219 (H18L6_LC_N33A mAb) (antibody, human IgG1, kappa, V domains shown)
VH: QVQLVQSGAEVKKPGSSVKVSCKASGYTFTDYEMHWVKQAPGHGLEWIGAIDPETGDTAYNQKFKGKATLTADTSTSTAYMELSSLRSEDTAVYYCTRYFSFAYWGQGTLVTVSS
VL: EIVLTQSPATLSLSPGERATISCRSSQSLRHSAGNTYLQWYQQKPGQAPRLLIYKVSNRFSGVPARFSGSGSGTDFTLTISSLEPEDFAVYFCYQSKHVPYTFGGGTKVEIKR
As to B11, the binding entry in assay [1] and in assay [2] was “binds” throughout.

B12: v40210 (H18L6_LC_G34S mAb) (antibody, human IgG1, kappa, V domains shown)
VH: QVQLVQSGAEVKKPGSSVKVSCKASGYTFTDYEMHWVKQAPGHGLEWIGAIDPETGDTAYNQKFKGKATLTADTSTSTAYMELSSLRSEDTAVYYCTRYFSFAYWGQGTLVTVSS
VL: EIVLTQSPATLSLSPGERATISCRSSQSLRHSNSNTYLQWYQQKPGQAPRLLIYKVSNRFSGVPARFSGSGSGTDFTLTISSLEPEDFAVYFCYQSKHVPYTFGGGTKVEIKR
As for B12, the binding result in assay [1] and in assay [2] was “binds” each time.

B13: v40205 (H18L6_LC_G34H mAb) (antibody, human IgG1, kappa, V domains shown)
VH: QVQLVQSGAEVKKPGSSVKVSCKASGYTFTDYEMHWVKQAPGHGLEWIGAIDPETGDTAYNQKFKGKATLTADTSTSTAYMELSSLRSEDTAVYYCTRYFSFAYWGQGTLVTVSS
VL: EIVLTQSPATLSLSPGERATISCRSSQSLRHSNHNTYLQWYQQKPGQAPRLLIYKVSNRFSGVPARFSGSGSGTDFTLTISSLEPEDFAVYFCYQSKHVPYTFGGGTKVEIKR
Consider B13, for which the binding result in assay [1] and in assay [2] was “binds” each time.

B14: v40207 (H18L6_LC_G34K mAb) (antibody, human IgG1, kappa, V domains shown)
VH: QVQLVQSGAEVKKPGSSVKVSCKASGYTFTDYEMHWVKQAPGHGLEWIGAIDPETGDTAYNQKFKGKATLTADTSTSTAYMELSSLRSEDTAVYYCTRYFSFAYWGQGTLVTVSS
VL: EIVLTQSPATLSLSPGERATISCRSSQSLRHSNKNTYLQWYQQKPGQAPRLLIYKVSNRFSGVPARFSGSGSGTDFTLTISSLEPEDFAVYFCYQSKHVPYTFGGGTKVEIKR
As for B14, the binding entry in assay [1] and in assay [2] was “binds” in each case.

B15: v40213 (H18L6_LC_N33E mAb) (antibody, human IgG1, kappa, V domains shown)
VH: QVQLVQSGAEVKKPGSSVKVSCKASGYTFTDYEMHWVKQAPGHGLEWIGAIDPETGDTAYNQKFKGKATLTADTSTSTAYMELSSLRSEDTAVYYCTRYFSFAYWGQGTLVTVSS
VL: EIVLTQSPATLSLSPGERATISCRSSQSLRHSEGNTYLQWYQQKPGQAPRLLIYKVSNRFSGVPARFSGSGSGTDFTLTISSLEPEDFAVYFCYQSKHVPYTFGGGTKVEIKR
B15: the binding result in assay [1] and in assay [2] was “binds” throughout.

B16: v40217 (H18L6_LC_N33K mAb) (antibody, human IgG1, kappa, V domains shown)
VH: QVQLVQSGAEVKKPGSSVKVSCKASGYTFTDYEMHWVKQAPGHGLEWIGAIDPETGDTAYNQKFKGKATLTADTSTSTAYMELSSLRSEDTAVYYCTRYFSFAYWGQGTLVTVSS
VL: EIVLTQSPATLSLSPGERATISCRSSQSLRHSKGNTYLQWYQQKPGQAPRLLIYKVSNRFSGVPARFSGSGSGTDFTLTISSLEPEDFAVYFCYQSKHVPYTFGGGTKVEIKR
Turning to B16, the binding entry in assay [1] and in assay [2] was “binds” each time.

B17: v40204 (H18L6_LC_G34E mAb) (antibody, human IgG1, kappa, V domains shown)
VH: QVQLVQSGAEVKKPGSSVKVSCKASGYTFTDYEMHWVKQAPGHGLEWIGAIDPETGDTAYNQKFKGKATLTADTSTSTAYMELSSLRSEDTAVYYCTRYFSFAYWGQGTLVTVSS
VL: EIVLTQSPATLSLSPGERATISCRSSQSLRHSNENTYLQWYQQKPGQAPRLLIYKVSNRFSGVPARFSGSGSGTDFTLTISSLEPEDFAVYFCYQSKHVPYTFGGGTKVEIKR
Take B17: the binding result in assay [1] and in assay [2] was “binds” in each case.

B18: v40220 (H18L6_LC_N33Q mAb) (antibody, human IgG1, kappa, V domains shown)
VH: QVQLVQSGAEVKKPGSSVKVSCKASGYTFTDYEMHWVKQAPGHGLEWIGAIDPETGDTAYNQKFKGKATLTADTSTSTAYMELSSLRSEDTAVYYCTRYFSFAYWGQGTLVTVSS
VL: EIVLTQSPATLSLSPGERATISCRSSQSLRHSQGNTYLQWYQQKPGQAPRLLIYKVSNRFSGVPARFSGSGSGTDFTLTISSLEPEDFAVYFCYQSKHVPYTFGGGTKVEIKR
As for B18, the binding entry in assay [1] and in assay [2] was “binds” throughout.

B19: v37575 (codrituzumab) (antibody, human IgG1, kappa, V domains shown)
VH: QVQLVQSGAEVKKPGASVKVSCKASGYTFTDYEMHWVRQAPGQGLEWMGALDPKTGDTAYSQKFKGRVTLTADKSTSTAYMELSSLTSEDTAVYYCTRFYSYTYWGQGTLVTVSS
VL: DVVMTQSPLSLPVTPGEPASISCRSSQSLVHSNRNTYLHWYLQKPGQSPQLLIYKVSNRFSGVPDRFSGSGSGTDFTLKISRVEAEDVGVYYCSQNTHVPPTFGQGTKLEIKR
For the molecule B19, the binding entry in assay [2] is recorded as “binds”.
